PubChem BioAssay AID1671195 | Yale University – 2021
Here is an unselected part of about 22,000 reagents. In the full data, about 1,510 (6.9%) got an active call. 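Active includes knockdowns raising or lowering LDL uptake; positive z-scores mean more uptake, negative mean less.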 Entries without a mark were called inactive.

- Test: 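Regulators of LDL receptor activity judged by labelled LDL uptake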 (primary screen)
- System: human Huh7 hepatoma cells
- Reagent: siRNA pool against human genes, 18 nM
- Timing: about 2 to 2.5 days of knockdown, then 8 h LDL uptake
- Challenge: DiI-labelled LDL at 30 µg/ml for 8 h, in lipoprotein-deficient serum medium
- Measured: 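Per-cell DiI-LDL intensity by automated imaging; well means scaled to the plate median and given as a robust z-score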
- Scale: robust z-score: higher = more LDL uptake after knockdown
- Hit rule: 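Active when two or more replicates show a robust z-score above 2 or below -2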

gene | robust z-score, replicate 1 | robust z-score, replicate 2 | robust z-score, replicate 3
DSCAM (DS cell adhesion molecule) | -0.848 | 0.252 | 0.102
LOC100287792 | -0.352 | -0.657 | -0.667
LOC441826 (retired record) | 5.79 (active) | 3.16 | 3.79
LRP5 (LDL receptor related protein 5) | 1.88 (active) | 2.29 | 2.66
SNX9 (sorting nexin 9) | -0.353 | -0.429 | -0.522
IFNA14 (interferon alpha 14) | -0.553 | -1.11 | -0.136
OR52N2 (olfactory receptor family 52 subfamily N member 2) | -0.81 | -0.866 | -1.04
DCTN3 (dynactin subunit 3) | 0.396 | -0.297 | 0.957
MBOAT2 (membrane bound glycerophospholipid O-acyltransferase 2) | -0.519 | 0.438 | -0.78
SACM1L (SAC1 like phosphatidylinositide phosphatase) | -1.57 | -1.19 | -1.29
SPRY2 (sprouty RTK signaling antagonist 2) | -0.516 | -1.73 | -0.0146
IFNA16 (interferon alpha 16) | 0.758 | 0.501 | 1.69
HMOX2 (heme oxygenase 2) | 0.778 | 1.27 | 0.843
KRT20 (keratin 20) | -2.32 | -1.63 | -1.67
CDR2 (cerebellar degeneration related protein 2) | -0.151 | -0.618 | 1.84
P3H1 (prolyl 3-hydroxylase 1) | -0.284 | -0.728 | -0.521
CLCA2 (chloride channel accessory 2) | -1.07 | -1.62 | -0.966
SERBP1 (SERPINE1 mRNA binding protein 1) | 0.979 | 0.652 | 0.446
ZNF583 (zinc finger protein 583) | 1.19 | 0.879 | 1.39
WDR87 (WD repeat domain 87) | -0.174 | 1.03 | 0.92
PDLIM3 (PDZ and LIM domain 3) | -1.15 | -0.675 | -1.39
GLP1R (glucagon like peptide 1 receptor) | -1.4 | -0.469 | -1.24
CAPN11 (calpain 11) | -1.63 | -1.12 | -1.42
LY6H (lymphocyte antigen 6 family member H) | 3.14 (active) | 3.44 | 2.54
MYO7A (myosin VIIA) | -0.0308 | 0.363 | 0.266
STATH (statherin) | -1.2 | -0.491 | 0.568
LOC400400 (retired record) | -0.833 | -0.459 | -0.456
CAPN10 (calpain 10) | -1.02 | -0.0591 | -0.508

Already shown: entries from further up.
gene | robust z-score, replicate 1 | robust z-score, replicate 2 | robust z-score, replicate 3
LOC100287792 | -0.352 | -0.657 | -0.667
LOC441826 (retired record) | 5.79 (active) | 3.16 | 3.79
LRP5 (LDL receptor related protein 5) | 1.88 (active) | 2.29 | 2.66
SNX9 (sorting nexin 9) | -0.353 | -0.429 | -0.522
